No constants are given. Whether binding was seen depends on the method and setting. In cells and extracts the contact can be indirect. Some entries that bind do so weakly or less than the wild type. For some assays here: Where a sequence is shown, tags or fusion partners need not be part of it.
Columns and labels:
FLAG-SOX6 = FLAG-SOX6 (UniProt P35712); test: co-IP; FLAG-SOX6 and HA-TRIM28 expression plasmids transfected into HEK293T; whole-cell extracts IPed with anti-FLAG, Western blotting with anti-HA and anti-FLAG
FLAG-MAGEC2 = biological target: T1, FLAG-MAGEC2 (UniProt Q9UBF1); test: co-IP; FLAG-MAGEC2 expression vector transfected into HEK293T; IP-Western blotting of whole-cell extracts (0.4 M NaCl, 0.5% Triton-X 100 extraction buffer), antibody on Protein-G-Sepharose beads, 2-3 h at 4 °C; endogenous TRIM28 detected
T1 sequence: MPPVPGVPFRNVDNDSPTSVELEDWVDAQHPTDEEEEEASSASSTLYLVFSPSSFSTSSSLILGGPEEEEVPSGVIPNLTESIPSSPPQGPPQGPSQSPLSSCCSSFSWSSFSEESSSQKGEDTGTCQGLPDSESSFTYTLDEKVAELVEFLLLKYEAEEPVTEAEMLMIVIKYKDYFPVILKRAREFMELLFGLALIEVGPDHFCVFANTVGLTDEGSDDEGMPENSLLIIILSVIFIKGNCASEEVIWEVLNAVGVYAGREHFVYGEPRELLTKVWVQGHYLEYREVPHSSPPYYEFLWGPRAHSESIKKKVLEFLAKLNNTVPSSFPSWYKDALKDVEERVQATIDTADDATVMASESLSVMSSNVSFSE

By UniProt entry, the sequences of proteins in these tests, tags left out.
UniProt P35712: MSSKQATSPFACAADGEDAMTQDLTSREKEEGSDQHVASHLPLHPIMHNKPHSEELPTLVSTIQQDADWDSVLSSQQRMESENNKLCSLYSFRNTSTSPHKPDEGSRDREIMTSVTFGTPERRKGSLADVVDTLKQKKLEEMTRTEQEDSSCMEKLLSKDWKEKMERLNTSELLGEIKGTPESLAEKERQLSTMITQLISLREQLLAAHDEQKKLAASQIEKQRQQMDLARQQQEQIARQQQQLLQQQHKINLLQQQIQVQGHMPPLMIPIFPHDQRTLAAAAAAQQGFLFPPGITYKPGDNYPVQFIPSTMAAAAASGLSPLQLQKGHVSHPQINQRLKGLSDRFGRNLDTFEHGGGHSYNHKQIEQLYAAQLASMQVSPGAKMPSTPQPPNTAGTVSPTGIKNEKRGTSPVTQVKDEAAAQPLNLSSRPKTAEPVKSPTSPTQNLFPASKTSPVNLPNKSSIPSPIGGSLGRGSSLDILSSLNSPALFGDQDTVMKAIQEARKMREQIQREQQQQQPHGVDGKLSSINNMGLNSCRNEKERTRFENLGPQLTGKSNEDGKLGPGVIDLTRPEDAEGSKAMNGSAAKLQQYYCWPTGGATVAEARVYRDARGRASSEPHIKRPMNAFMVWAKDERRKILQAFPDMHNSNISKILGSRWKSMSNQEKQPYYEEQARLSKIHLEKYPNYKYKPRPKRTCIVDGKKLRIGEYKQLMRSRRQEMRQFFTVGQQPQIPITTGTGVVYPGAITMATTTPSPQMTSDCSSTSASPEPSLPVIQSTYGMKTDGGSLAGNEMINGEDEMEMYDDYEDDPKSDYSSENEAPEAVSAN
UniProt Q13263: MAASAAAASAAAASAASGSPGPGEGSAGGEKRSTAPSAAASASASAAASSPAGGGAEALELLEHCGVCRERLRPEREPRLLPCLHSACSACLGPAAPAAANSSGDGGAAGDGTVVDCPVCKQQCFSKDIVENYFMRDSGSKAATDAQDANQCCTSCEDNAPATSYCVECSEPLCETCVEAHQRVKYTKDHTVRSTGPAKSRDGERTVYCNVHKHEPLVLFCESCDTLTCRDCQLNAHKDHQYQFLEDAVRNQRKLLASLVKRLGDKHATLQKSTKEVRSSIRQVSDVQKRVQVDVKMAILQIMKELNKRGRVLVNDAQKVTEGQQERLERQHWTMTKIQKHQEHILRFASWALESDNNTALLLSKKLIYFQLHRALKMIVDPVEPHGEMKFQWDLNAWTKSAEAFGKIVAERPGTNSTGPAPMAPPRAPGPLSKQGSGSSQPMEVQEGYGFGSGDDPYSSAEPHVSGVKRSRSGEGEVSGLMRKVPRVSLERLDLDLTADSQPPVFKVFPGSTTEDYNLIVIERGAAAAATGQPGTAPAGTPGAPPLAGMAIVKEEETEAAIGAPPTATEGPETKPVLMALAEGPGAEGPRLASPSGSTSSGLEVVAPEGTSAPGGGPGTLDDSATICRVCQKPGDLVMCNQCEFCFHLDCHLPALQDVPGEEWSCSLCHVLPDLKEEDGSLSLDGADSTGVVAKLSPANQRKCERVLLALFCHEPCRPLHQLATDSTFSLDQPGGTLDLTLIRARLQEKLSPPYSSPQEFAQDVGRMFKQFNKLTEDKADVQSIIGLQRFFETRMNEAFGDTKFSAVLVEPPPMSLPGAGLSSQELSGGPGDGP

Substance	binding (FLAG-SOX6)	binding (FLAG-MAGEC2)
HA-TRIM28 (from UniProt Q13263 1-835)	binds	
endogenous TRIM28 (from UniProt Q13263 1-835)		binds

From article PMC9224613
